Results are given in words; binding and its absence hold for the method and conditions named.
Target: tomato ortholog of Arabidopsis F-box protein STERILE APETALA (SAP) (tomato (Solanum lycopersicum))
Experiment: two-hybrid

Substance	binding
tomato PEAPOD 2 (PPD2) (from UniProt A0A190V579)	no binding
tomato PEAPOD 1 (PPD1) (from UniProt A0A3Q7HYU3)	no binding

Source: doi:10.1101/2020.02.07.938977
